In PubChem BioAssay AID208 (DTP/NCI, 2004):
The list is a part of this screen's results and no random one: it gathers tests that were run many times, whatever their T/C, doses with no T/C, and many T/C values between a quarter and a half above the control. Further doses and runs are listed elsewhere. T/C is the treated group as % of the vehicle group. Schedules are NCI's codes, read here as Q, the interval in days (D) or hours (H), X, the number of doses. Some T/C values carry the count of animals alive at the toxicity check (mostly the fifth day); where none is given, no animal had died by that day. Some entries were tested several times; the results are listed from low to high. Some doses have a count of surviving animals in place of a T/C: the source files T/C as zero there, which appears to mark a toxic dose or a test without result, not a measured value. Survivors were counted at the toxicity check, usually on the fifth day, unless a day is given; later deaths do not show.

Tested on: HT29 intrarenal xenograft, nude mice, tumor weight change
Assay: NCI In Vivo Anticancer Drug Screen. Data for tumor model HT29;CX-1 Human Adenocarcinoma (MER+) (intrarenal inoculation) in NU/NU BALB/C (nude) mice
Settings: T/C endpoint: mean tumor weight change, higher T/C = larger tumour
Experimental: The antitumor activity of compounds was measured in mice bearing transplantable tumors. Survival or tumor size were measured and the results are expressed as the measurement made in the treated group (T) divided by the measurement made in the vehicle treated control group (C). The tumor model used in this assay is HT29;CX-1 Human Adenocarcinoma (MER+) (intrarenal inoculation) in NU/NU BALB/C (nude) mice

[1] = dose: 800.0 mg/kg/injection, schedule: Q04DX004 (sc), vehicle: saline with Tween-80
[2] = dose: 400.0 mg/kg/injection, schedule: Q01DX010 (sc), vehicle: saline with Tween-80
[3] = dose: 150.0 mg/kg/injection, schedule: Q04DX004 (sc), vehicle: saline
[4] = dose: 300.0 mg/kg/injection, schedule: Q04DX004 (sc), vehicle: saline
[5] = dose: 600.0 mg/kg/injection, schedule: Q04DX004 (sc), vehicle: saline
[6] = dose: 200.0 mg/kg/injection, schedule: Q04DX004 (sc), vehicle: saline
[7] = dose: 600.0 mg/kg/injection, schedule: Q04DX004 (ip), vehicle: DMSO, evaluated on day 15
[8] = dose: 1200.0 mg/kg/injection, schedule: Q04DX004 (ip), vehicle: DMSO

NC(=S)N/N=C/c1ccc(O)cn1
survivor count (dose: 400.0 mg/kg/injection, schedule: Q04DX004 (sc), vehicle: saline with Tween-80): 3 of 6 on day 15 | survivor count [1]: 0 of 6 on day 15 | survivor count (dose: 1600.0 mg/kg/injection, schedule: Q04DX004 (sc), vehicle: saline with Tween-80): 0 of 6 on day 15

Nc1nc(=S)c2ncn(C3CC(O)C(CO)O3)c2[nH]1 (stereo not drawn)
survivor count (dose: 3.75 mg/kg/injection, schedule: Q01DX010 (sc), vehicle: saline with Tween-80): 0 of 6 on day 11 | survivor count (dose: 7.5 mg/kg/injection, schedule: Q01DX010 (sc), vehicle: saline with Tween-80): 0 of 6 on day 11 | survivor count (dose: 15.0 mg/kg/injection, schedule: Q01DX010 (sc), vehicle: saline with Tween-80): 0 of 6 on day 11

CCOC(=O)C(CC(C)C)NC(=O)C(Cc1ccc(N(CCCl)CCCl)cc1)NC(C)=O (stereo not drawn)
survivor count [2]: 1 of 6 on day 11 | survivor count (dose: 800.0 mg/kg/injection, schedule: Q01DX010 (sc), vehicle: saline with Tween-80): 0 of 6 on day 11

CS(=O)(=O)c1ncc(Br)cn1
T/C (dose: 200.0 mg/kg/injection, schedule: Q01DX010 (sc), vehicle: saline with Tween-80, evaluated on day 11): 132 % of control

CCC(=O)N(C)[C@@H](C)C(=O)O[C@H]1CC(=O)N(C)c2cc(cc(OC)c2Cl)C/C(C)=C/C=C[C@@H](OC)[C@@]2(O)C[C@H](OC(=O)N2)[C@@H](C)[C@@H]2O[C@@]12C
survivor count (dose: 0.06 mg/kg/injection, schedule: Q01DX010 (ip), vehicle: saline + alcohol): 0 of 6 on day 15 | survivor count (dose: 0.12 mg/kg/injection, schedule: Q01DX010 (ip), vehicle: saline + alcohol): 0 of 6 on day 15 | survivor count (dose: 0.25 mg/kg/injection, schedule: Q01DX010 (ip), vehicle: saline + alcohol): 0 of 6 on day 15 | survivor count (dose: 0.5 mg/kg/injection, schedule: Q01DX010 (ip), vehicle: saline + alcohol): 0 of 6 on day 15

Oc1cccc2ccccc12
survivor count (dose: 300.0 mg/kg/injection, schedule: Q04DX004 (ip), vehicle: water): 2 of 6 on day 15 | survivor count (dose: 600.0 mg/kg/injection, schedule: Q04DX004 (ip), vehicle: water): 0 of 6 on day 15 | survivor count (dose: 1200.0 mg/kg/injection, schedule: Q04DX004 (ip), vehicle: water): 0 of 6 on day 15

CCCCc1ccc2nc(NC(=O)OC)[nH]c2c1
T/C (dose: 50.0 mg/kg/injection, schedule: Q01DX010 (sc), vehicle: saline with Tween-80, evaluated on day 11): 127 % of control [2 of 2 alive on day 11]

O=C1OC(C(O)CO)C(O)=C1O (stereo not drawn)
T/C (dose: 1600.0 mg/kg/injection, schedule: Q01DX010 (sc), vehicle: saline, evaluated on day 11): 142 % of control [2 of 3 alive on day 11] | survivor count (dose: 3200.0 mg/kg/injection, schedule: Q01DX010 (sc), vehicle: saline): 0 of 3 on day 11

O=C(O)CC(NC(=O)CP(=O)(O)O)C(=O)O (stereo not drawn)
survivor count (dose: 400.0 mg/kg/injection, schedule: Q01DX010 (sc), vehicle: saline): 1 of 2 on day 11 | survivor count (dose: 800.0 mg/kg/injection, schedule: Q01DX010 (sc), vehicle: saline): 0 of 2 on day 11

CC[C@](O)(C(=O)O)c1cc2n(c(=O)c1CO)Cc1cc3ccccc3nc1-2
survivor count (dose: 62.5 mg/kg/injection, schedule: Q04DX004 (sc), vehicle: saline): 3 of 6 on day 15 | survivor count (dose: 125.0 mg/kg/injection, schedule: Q04DX004 (sc), vehicle: saline): 1 of 6 on day 15 | survivor count (dose: 250.0 mg/kg/injection, schedule: Q04DX004 (sc), vehicle: saline): 0 of 6 on day 15

CC(=O)OC(C)C1C2=C(C(=O)CC1(C)O)C(=O)c1c(ccc(-c3ccc4c(c3O)C(=O)C3=C(C4=O)C(C(C)OC(C)=O)C(C)(O)CC3=O)c1O)C2=O (stereo not drawn)
survivor count (dose: 60.0 mg/kg/injection, schedule: Q04DX004 (ip), vehicle: saline with Tween-80): 0 of 6 on day 15

CCNC(C)(C)C(SSS)c1ccco1 (stereo not drawn)
survivor count (dose: 600.0 mg/kg/injection, schedule: Q04DX004 (sc), vehicle: saline with Tween-80): 0 of 6 on day 15

NCCCNCCSP(=O)(O)O
T/C (dose: 400.0 mg/kg/injection, schedule: Q04DX004 (sc), vehicle: saline, evaluated on day 15): 128 % of control | survivor count (dose: 800.0 mg/kg/injection, schedule: Q04DX004 (sc), vehicle: saline): 1 of 6 on day 15 | survivor count (dose: 1600.0 mg/kg/injection, schedule: Q04DX004 (sc), vehicle: saline): 0 of 6 on day 15

CN(C)CCC(=O)C(=Cc1ccc(O)cc1)C(=O)CCN(C)C
survivor count (dose: 300.0 mg/kg/injection, schedule: Q04DX004 (ip), vehicle: saline): 0 of 6 on day 15 | survivor count (dose: 600.0 mg/kg/injection, schedule: Q04DX004 (ip), vehicle: saline): 0 of 6 on day 15

O=P(O)(NCCCl)NCCCl
survivor count [3]: 0 of 3 on day 15 and 0 of 5 on day 15 | survivor count [4]: 0 of 3 on day 15 | survivor count [5]: 0 of 3 on day 15

C[C@@H]1C[C@@H]([C@H](O)CC2CC(=O)NC(=O)C2)C(=O)[C@@H](C)C1
survivor count [3]: 3 of 5 on day 15 | survivor count [4]: 0 of 6 on day 15 | survivor count [5]: 0 of 6 on day 15

C1OC1CO[C@@H]1CO[C@H]2[C@@H]1OC[C@H]2OCC1CO1 (stereo partly drawn)
survivor count [2]: 0 of 3 on day 11

Oc1ccc(O)cc1
T/C (dose: 50.0 mg/kg/injection, schedule: Q04DX004 (sc), vehicle: saline, evaluated on day 15): 134 % of control | survivor count [6]: 3 of 6 on day 15 | survivor count (dose: 400.0 mg/kg/injection, schedule: Q04DX004 (sc), vehicle: saline): 0 of 6 on day 15

CN(C)N=Nc1cccc(C(N)=O)c1
survivor count (dose: 200.0 mg/kg/injection, schedule: Q04DX004 (sc), vehicle: Klucel (hydroxypropylcellulose) (HPC)): 0 of 6 on day 15

O=C(O)CCCc1ccc(N(CCCl)CCCl)cc1
T/C (dose: 12.0 mg/kg/injection, schedule: Q04DX004 (ip), vehicle: Klucel (hydroxypropylcellulose) (HPC), evaluated on day 15): 38, 43, 56, 85 % of control | T/C (dose: 18.0 mg/kg/injection, schedule: Q04DX004 (ip), vehicle: Klucel (hydroxypropylcellulose) (HPC), evaluated on day 15): 63, 69, 127, 204 % of control [4 of 6 alive on day 15] | T/C (dose: 27.0 mg/kg/injection, schedule: Q04DX004 (ip), vehicle: Klucel (hydroxypropylcellulose) (HPC), evaluated on day 15): 21 [4 of 6 alive on day 15], 29, 32, 125 % of control | survivor count (dose: 40.0 mg/kg/injection, schedule: Q04DX004 (ip), vehicle: Klucel (hydroxypropylcellulose) (HPC)): 3 of 6 on day 15

O=P1(N(CCCl)CCCl)NCCCO1 (stereo not drawn)
survivor count [6]: 0 of 3 on day 15

CCOC(=O)C(N)CSC(=O)NC (stereo not drawn)
survivor count (dose: 1200.0 mg/kg/injection, schedule: Q04DX004 (ip), vehicle: saline): 3 of 6 on day 15 | survivor count (dose: 1200.0 mg/kg/injection, schedule: Q04DX004 (sc), vehicle: saline): 2 of 6 on day 15

CN(CO)c1nc(N(C)CO)nc(N(C)CO)n1
survivor count (dose: 200.0 mg/kg/injection, schedule: Q01DX010 (sc), vehicle: saline): 0 of 2 on day 11

O=C(O)[C@H](Cc1ccccc1)N1C(=O)c2ccccc2C1=O
T/C [7]: 142 % of control | survivor count [8]: 0 of 6 on day 15

C[C@@H]1CC[C@]2(C)CC[C@]3(C)C(=CC[C@@H]4[C@@]5(C)CC[C@@H](OC(=O)c6ccc(O)cc6)C(C)(C)[C@@H]5C[C@H](O)[C@]43C)[C@@H]2[C@H]1C(=O)O
survivor count (dose: 5.0 mg/kg/injection, schedule: Q04DX004 (sc), vehicle: saline with Tween-80): 1 of 6 on day 15

Nc1ccc(S(=O)(=O)Nc2cnc3c(Cl)cccc3n2)cc1
T/C (dose: 150.0 mg/kg/injection, schedule: Q04DX004 (ip), vehicle: DMSO, evaluated on day 15): 149 % of control | T/C [7]: 125 % of control | survivor count [8]: 3 of 6 on day 15

Nc1nc2ccc(NCc3ccc(C(=O)NC(CCC(=O)O)C(=O)O)cc3)cc2c(=O)[nH]1 (stereo not drawn)
T/C (dose: 100.0 mg/kg/injection, schedule: Q04DX004 (sc), vehicle: saline with Tween-80, evaluated on day 15): 129 % of control | survivor count [1]: 0 of 6 on day 15
